Measurements as given in PubChem BioAssay AID540276 (National Center for Advancing Translational Sciences (NCATS), 2011).
In all, about 300,000 compounds went through this assay and about 5,400 (1.8%) were called active. The shares of active, inactive and inconclusive entries below differ from those in the screen. Calls come from the whole dose curve; tested in HEK293 cells. A potency beside an inconclusive call is a rough fit, not a confirmed value.

assay: qHTS for inhibitors of binding or entry into cells for Marburg Virus; details: Marburg virus pseudotyped entry inhibition, cell reporter; series mostly up to 37.8 µM
Potency is the fitted concentration of half-maximal effect.

SMILES	Potency
CC(N)Cc1c[nH]c2ccc(Cl)cc12 (centres undefined)	inconclusive: 29.1 µM [inhibitor, single point]
O=C(CN1CCCCC1)Nc1cc(Cl)ccc1Oc1ccccc1	inconclusive: 20 µM [inhibitor, partial curve, poor fit]
COc1ccccc1Nc1c2c(nc3ccc(NC(=O)c4ccccc4F)cc13)CCCC2	active: 3.16 µM
O=S(=O)(c1ccccc1)c1nc(-c2ccccc2)oc1N1CCCCC1	inconclusive: 25.9 µM [inhibitor, partial curve]
COc1ccc(-n2cc(CNC3CCC(O)CC3)c(-c3cccc(F)c3)n2)cc1 (centres undefined)	active: 17.8 µM
Nc1nnc(CSCc2ccc(Cl)cc2)s1	inconclusive: 15.8 µM [activator, single point]
CCOc1ccc(C(=O)Nc2ccc3c(c2)OCCO3)cc1	inconclusive: 28.2 µM [inhibitor, single point]
CCOc1ccc(C(=O)Cc2cc3cccc(OC)c3oc2=O)cc1	inactive
CCC(=O)N1c2ccc(S(=O)(=O)CCC(=O)NCc3cccs3)cc2CC1C (centres undefined)	inconclusive: 1.58 µM [inhibitor, partial curve, poor fit]
Cc1ccc(S(=O)(=O)NCc2ccncc2)cc1C(=O)NCC(C)C	inactive
CCN(CC)CCCNC(=O)c1cn(CC(C)C)c(=O)c2c1c1ccccc1n2C	inconclusive: 15.8 µM [inhibitor, partial curve, poor fit]
Cc1ccc(-n2[nH]c(C)c(C=Nc3ccc(S(=O)(=O)Nc4nc(C)cc(C)n4)cc3)c2=O)c(C)c1	inconclusive: 6.31 µM [activator, partial curve, poor fit]
CC1CCN(c2ccc(-c3ccc(NC(=O)C(F)(F)F)cc3)nn2)CC1	inconclusive: 0.631 µM [inhibitor, full curve, poor fit]
CN1CCC(OC(=O)C2c3ccccc3Oc3ccccc32)CC1	inconclusive: 28.2 µM [inhibitor, single point]
Cc1c(NC(=O)c2cccc(-c3cc4ccccc4oc3=O)c2)cccc1-c1nc2ncccc2o1	inconclusive: 17.8 µM [inhibitor, single point]
Cc1cc(C)cc(N2CC34C=CC(O3)C(C(=O)OCC(=O)NCc3ccco3)C4C2=O)c1 (centres undefined)	inconclusive: 0.073 µM [inhibitor, full curve, poor fit]
CC(=O)C1CCC2C(CCC3=CC(=O)CCC32)C1 (centres undefined)	inconclusive: 6.31 µM [activator, single point]
Cc1ccc2c(CN(C)Cc3ccccc3)cc(=O)oc2c1C	inconclusive: 7.94 µM [inhibitor, partial curve, poor fit]
C/C(=N/NC(=O)C1CCN(S(=O)(=O)c2ccc(C)cc2)CC1)c1cccc([N+](=O)[O-])c1	inactive
COc1ccc(-c2nc(-c3cccs3)no2)cc1	inconclusive: 1.26 µM [inhibitor, full curve, poor fit]
Cn1nc(C(=O)NC2CCCCCC2)ccc1=O	inactive
CCOC(=O)N1CCN(C(=S)Nc2ccc(C)cc2)CC1	inconclusive: 31.6 µM [activator, single point]
O=C(c1cccs1)N1N=C(c2ccc(O)cc2)CC1c1ccccc1 (centres undefined)	inactive

SMILES	Potency
CCOc1ccccc1N1CC(C(=O)Nc2ccc(S(=O)(=O)N3CCCCC3)cc2)CC1=O (centres undefined)	inconclusive: 35.5 µM [inhibitor, single point]
COc1ccc(C2C(CN3CCOCC3)C(=O)N2c2ccccc2)cc1 (centres undefined)	inconclusive: 17.8 µM [activator, partial curve, poor fit]
NS(=O)(=O)c1ccc(NC(=O)C2Cc3ccccc3CN2C(=O)c2ccco2)cc1 (centres undefined)	inactive
Cc1cccc(CCn2c(=O)c3ccccc3n(CC(=O)Nc3ccccc3F)c2=O)c1	inactive
O=C(Nc1ccccc1N1CCCC1)C1CCN(C(=O)c2ccc(F)cc2)CC1	inconclusive: 1 µM [inhibitor, full curve, poor fit]
c1ccc2c(c1)oc1c(Nc3ccc4c(c3)OCCO4)ncnc12	inconclusive: 16.4 µM [inhibitor, single point]
C=CCNc1nc(Nc2ccc(-c3nc4ccccc4o3)cc2)nc(N2CCOCC2)n1	inconclusive: 18.3 µM [inhibitor, single point]
CCn1c2ccccc2c2nc3cc(OC)c(OC)cc3nc21	inconclusive: 3.16 µM [inhibitor, single point]
CCOC(=O)c1c(C)[nH]c(C2=NNC(=Nc3ccccc3)SC2)c1C	inactive
CCN(CC)C(=O)CCNS(=O)(=O)c1ccc(C)cc1	inactive
Nc1nc2ccccc2n1CCOc1ccc(Cl)cc1	inconclusive: 10 µM [inhibitor, partial curve]
COc1ccc(C=NN=C2c3ccccc3-c3ccccc32)cc1O	inconclusive: 20 µM [inhibitor, single point]
Cc1ccc(N(C(=O)Cc2c[nH]c3ccccc23)C(C(=O)NC2CCCCC2)c2ccco2)cc1 (centres undefined)	inconclusive: 29.1 µM [inhibitor, single point]
COc1ccc(NC(=O)CCC(=O)N(Cc2ccc(OC)c(OC)c2)c2nccs2)c(OC)c1	inconclusive: 6.31 µM [activator, partial curve, poor fit]
CCOC(=O)c1ccc(N2C(=O)C(CC(=O)NC)N(CCc3ccc(OC)c(OC)c3)C2=S)cc1 (centres undefined)	inconclusive: 35.5 µM [inhibitor, single point]
CCOc1ccc(-c2ccc(SC)nn2)cc1	active: 1.26 µM
CCc1ccc(-n2nnnc2SCC(=O)NNC(=O)c2ccco2)cc1	inconclusive: 0.92 µM [inhibitor, partial curve]
CC(=O)Nc1ccc(/C=C2\CCc3ccccc3C2=O)cc1	inconclusive: 5.62 µM [inhibitor, full curve, poor fit]
Cc1c(C)n(CCc2ccccc2)c2ncnc(NN)c12	inactive
O=c1[nH]c2ccc(S(=O)(=O)N3CCN(c4ccccc4F)CC3)cc2s1	inconclusive: 0.103 µM [inhibitor, full curve, poor fit]
CCOC(=O)c1cnc(-n2nc(C)cc2C)nc1Oc1ccc(C#N)cc1	inactive
CCN(CCO)c1ccc(NC(=S)Nc2cccc(S(=O)(=O)N(C)C)c2)cc1	inconclusive: 35.5 µM [inhibitor, single point]
Cc1ccc2c(c1)N(CC(=O)N1CCCC1)C(=O)C(C)O2 (centres undefined)	inconclusive: 35.5 µM [inhibitor, single point]

A portion from the list above:
SMILES	Potency
C/C(=N/NC(=O)C1CCN(S(=O)(=O)c2ccc(C)cc2)CC1)c1cccc([N+](=O)[O-])c1	inactive
COc1ccc(-c2nc(-c3cccs3)no2)cc1	inconclusive: 1.26 µM [inhibitor, full curve, poor fit]
Cn1nc(C(=O)NC2CCCCCC2)ccc1=O	inactive
CCOC(=O)N1CCN(C(=S)Nc2ccc(C)cc2)CC1	inconclusive: 31.6 µM [activator, single point]

Following part.

SMILES	Potency
CCCCC(=O)Nc1ccc(OCc2cc(=O)n3c(C)csc3n2)cc1	inactive
CCOC(=O)c1sc2nc(CC(=O)OC)nc(NCC(=O)OC)c2c1C	inactive
CC(=O)c1ccc(S(=O)(=O)N2CCC(C(=O)Nc3ncc(C)s3)CC2)cc1	inactive
CC(C)c1ccc(NC(=S)N2CCCC2)cc1	inactive
O=C1CC(N(CCc2ccccc2)C(=S)Nc2ccccc2)C(=O)N1c1ccccc1 (centres undefined)	inconclusive: 18.4 µM [inhibitor, single point]
COc1ccc(C(CCNCc2ccccc2)c2ccc(F)cc2)cc1 (centres undefined)	inconclusive: 11.2 µM [inhibitor, partial curve, poor fit]
CCN(C(=O)COC(=O)c1n[nH]c2ccccc12)C1CCS(=O)(=O)C1 (centres undefined)	inconclusive: 0.316 µM [activator, full curve, poor fit]
CCCc1cc(-c2n[nH]c(C(=O)OCC)c2-c2cscn2)c(O)cc1O	inconclusive: 23.1 µM [inhibitor, partial curve, poor fit]
COc1cc(OC)c(C2N(c3ccccn3)C(=O)C3CCCN32)cc1OC (centres undefined)	inconclusive: 14.6 µM [activator, partial curve]
COc1ccc(-c2noc(N3CCCC(C(=O)Nc4ccc(C(C)=O)cc4)C3)n2)cc1 (centres undefined)	inactive
CCn1c(=O)c(C(=O)Nc2ccccc2S(N)(=O)=O)c(O)c2ccccc21	inactive
CCOc1cc(C(=S)N2CCOCC2)ccc1OS(=O)(=O)c1ccc(Br)cc1	inconclusive: 35.5 µM [inhibitor, single point]
CCCCC(=O)c1ccc(O)cc1O	inactive
CC(=O)c1cccc(NC(=O)C2CCCCC2)c1	inactive
COC(=O)C1C(O)=C(C=Nc2ccc(N)cc2)C(=O)CC1(C)C (centres undefined)	inconclusive: 29.1 µM [inhibitor, single point]
CC(C)Sc1nc(N2CCOCC2)c2c(c1C#N)CC(C)(C)N(C)C2	inconclusive: 3.98 µM [activator, single point]
O=C(c1ccco1)N1CCCN(Cc2nc(-c3ccc4c(c3)OCO4)no2)CC1	inactive
COc1cccc(/C=N/NC(=O)CN(CCc2ccccc2)S(=O)(=O)c2ccc(NC(C)=O)cc2)c1	inconclusive: 35.5 µM [inhibitor, single point]
COc1cccc(-c2nnn(CCC(=O)O)n2)c1	inactive
COc1cc(OC)cc(C(=O)Nc2ccc3nc4n(c(=O)c3c2)CCCCC4)c1	inconclusive: 31.6 µM [activator, partial curve, poor fit]
CN1C(=O)c2ccccc2Sc2ccc(NC(=O)NCc3ccc(Cl)cc3)cc21	inconclusive: 7.94 µM [inhibitor, partial curve, poor fit]
O=C(Nc1cccc(Cl)c1)c1cc(-c2ccc3c(c2)OCO3)on1	inconclusive: 3.55 µM [activator, partial curve, poor fit]
O=C(Nc1ccc(Cl)cc1Cl)C1CCCO1 (centres undefined)	inconclusive: 1.58 µM [activator, partial curve, poor fit]
